The nature of the series: Test reaction of active substance with t-butyl hydroperoxide under reflux. The following applies: chloroform, reflux 6 hours. Format: physicochemical. From the text: To determine the sensitivity of the active substance to oxidation reactions with hydroperoxides, an easily implemented test reaction has been developed. For this purpose, the active substance in chloroform or another appropriate solvent is reacted with t-butyl hydroperoxide under reflux. If oxidative degradation products of the active substance are found in this reaction mixture, they can be attributed to the reaction with hydroperoxide. Often, degradation of the active substance is also evident very simply from a discoloration of the test solution. The practical conclusion to be drawn from a positive outcome of the test reaction is that when formulating a transdermal system using this active substance the auxiliaries used should include only those which are substantially free from hydroperoxides.
80 ml of chloroform and 1 g of t-butyl hydroperoxide are added to 0.5 g of the active substance and this system is heated under reflux with stirring for 6 hours. The reaction mixture is subsequently assessed for its color and analyzed using an appropriate chromatographic method for degradation products formed.

This note sets out measurements from patent US6699498B1, “Transdermal therapeutic systems having improved stability and their production” (LTS Lohmann Therapie-Systeme AG, priority 1999, dated 2004).

Entries after “also recorded” stand apart in the source; their conditions may differ.

As for `COC(=O)C1=C(C)NC(C)=C(C(=O)OC)C1c1ccccc1[N+](=O)[O-]` [nifedipine], the “Identified degradation product in reaction with t-butyl hydroperoxide” value is listed as “Aromatization of the dihydropyridine ring; also recorded: N-oxide formation”.
